Measured values: patent publication US20240400596A1, “PLATINUM-BASED PHOTOINITIATOR AND PHOTOCROSSLINKER, THEIR USE FOR ADDUCT FORMATION” (City University of Hong Kong, priority 2023, published 2024)
Some of these results come from one statement about several compounds together.

Chains of the proteins cited; added tags and fusions are not shown. Residues count along the entry.
UniProt P02769, 25-607: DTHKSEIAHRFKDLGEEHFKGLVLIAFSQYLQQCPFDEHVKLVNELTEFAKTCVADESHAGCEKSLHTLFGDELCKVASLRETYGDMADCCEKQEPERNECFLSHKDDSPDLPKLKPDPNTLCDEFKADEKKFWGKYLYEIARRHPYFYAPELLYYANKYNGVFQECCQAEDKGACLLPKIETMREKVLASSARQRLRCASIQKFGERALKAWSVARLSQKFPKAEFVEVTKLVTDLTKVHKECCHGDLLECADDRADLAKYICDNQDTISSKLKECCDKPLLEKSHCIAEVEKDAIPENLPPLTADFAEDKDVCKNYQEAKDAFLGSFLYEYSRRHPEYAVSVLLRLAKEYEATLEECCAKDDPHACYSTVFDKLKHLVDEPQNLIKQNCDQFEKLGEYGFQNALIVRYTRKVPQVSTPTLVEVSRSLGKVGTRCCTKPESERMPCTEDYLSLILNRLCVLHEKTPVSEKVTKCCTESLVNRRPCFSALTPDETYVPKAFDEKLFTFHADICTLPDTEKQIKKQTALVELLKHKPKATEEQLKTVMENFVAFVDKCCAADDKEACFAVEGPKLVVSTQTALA

Target: BSA (Bos taurus, UniProt P02769)
Test: BSA binding (ICP-OES)
Design: species or system bovine
Conditions: following irradiation, 50 μM Pt

Row | SMILES | platinum complexes bound to BSA
1 | CC(=O)[O][Pt]1([NH2])([NH2])([O]C(C)=O)[O]C(=O)C2(CCC2)C(=O)[O]1 [carPt(IV)] | over 80%
2 | CC(=O)[O][Pt]([NH2])([NH2])([Cl])([Cl])[O]C(C)=O [cisPt(IV)-1] | over 80%
